This passage reports binding results from paper PMC4371837.

The chains behind the UniProt entries cited, without tags or fusion partners.
UniProt Q921E6: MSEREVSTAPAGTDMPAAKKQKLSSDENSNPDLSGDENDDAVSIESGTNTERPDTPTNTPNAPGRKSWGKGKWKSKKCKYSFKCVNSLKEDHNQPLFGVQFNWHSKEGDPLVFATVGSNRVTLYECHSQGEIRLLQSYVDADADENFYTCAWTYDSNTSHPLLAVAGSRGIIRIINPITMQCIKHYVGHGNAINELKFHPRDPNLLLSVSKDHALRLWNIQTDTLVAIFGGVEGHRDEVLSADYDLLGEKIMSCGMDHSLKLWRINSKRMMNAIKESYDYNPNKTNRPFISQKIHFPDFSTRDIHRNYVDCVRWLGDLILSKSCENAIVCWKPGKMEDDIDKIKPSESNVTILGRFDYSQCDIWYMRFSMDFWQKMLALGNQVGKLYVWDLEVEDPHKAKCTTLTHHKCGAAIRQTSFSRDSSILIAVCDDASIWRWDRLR
UniProt Q80U70: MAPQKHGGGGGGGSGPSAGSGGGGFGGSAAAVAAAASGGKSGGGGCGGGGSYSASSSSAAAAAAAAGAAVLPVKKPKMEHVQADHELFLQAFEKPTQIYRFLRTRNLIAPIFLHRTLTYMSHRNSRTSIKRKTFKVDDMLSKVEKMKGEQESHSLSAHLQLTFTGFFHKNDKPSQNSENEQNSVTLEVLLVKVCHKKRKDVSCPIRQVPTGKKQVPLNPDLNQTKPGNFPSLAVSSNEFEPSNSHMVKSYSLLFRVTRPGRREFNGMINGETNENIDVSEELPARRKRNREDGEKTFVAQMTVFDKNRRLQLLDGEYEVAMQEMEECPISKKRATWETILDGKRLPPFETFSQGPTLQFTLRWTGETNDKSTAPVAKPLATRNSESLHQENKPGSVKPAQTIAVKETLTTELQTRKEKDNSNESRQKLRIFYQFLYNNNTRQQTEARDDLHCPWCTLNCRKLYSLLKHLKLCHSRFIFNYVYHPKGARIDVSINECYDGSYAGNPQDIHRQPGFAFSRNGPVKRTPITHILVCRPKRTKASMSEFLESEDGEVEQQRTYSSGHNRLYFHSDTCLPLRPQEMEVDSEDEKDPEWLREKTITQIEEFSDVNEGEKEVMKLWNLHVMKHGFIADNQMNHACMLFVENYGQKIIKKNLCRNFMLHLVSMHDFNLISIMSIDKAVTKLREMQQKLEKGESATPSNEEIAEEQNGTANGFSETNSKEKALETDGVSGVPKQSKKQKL

No constants are given. Whether binding was seen depends on the method and setting. Binding seen in cells or lysates may run through a third protein. Some entries that bind do so weakly or less than the wild type. Tags and fused reporters may be left off the sequences shown.

This experiment deals with T1, Flag-BioT-mREST (mouse REST tagged with a biotin acceptor sequence) (mouse) (UniProt Q8VIG1).
T1 sequence (chain, biotin on the biotin acceptor sequence (cells express E. coli BirA ligase)): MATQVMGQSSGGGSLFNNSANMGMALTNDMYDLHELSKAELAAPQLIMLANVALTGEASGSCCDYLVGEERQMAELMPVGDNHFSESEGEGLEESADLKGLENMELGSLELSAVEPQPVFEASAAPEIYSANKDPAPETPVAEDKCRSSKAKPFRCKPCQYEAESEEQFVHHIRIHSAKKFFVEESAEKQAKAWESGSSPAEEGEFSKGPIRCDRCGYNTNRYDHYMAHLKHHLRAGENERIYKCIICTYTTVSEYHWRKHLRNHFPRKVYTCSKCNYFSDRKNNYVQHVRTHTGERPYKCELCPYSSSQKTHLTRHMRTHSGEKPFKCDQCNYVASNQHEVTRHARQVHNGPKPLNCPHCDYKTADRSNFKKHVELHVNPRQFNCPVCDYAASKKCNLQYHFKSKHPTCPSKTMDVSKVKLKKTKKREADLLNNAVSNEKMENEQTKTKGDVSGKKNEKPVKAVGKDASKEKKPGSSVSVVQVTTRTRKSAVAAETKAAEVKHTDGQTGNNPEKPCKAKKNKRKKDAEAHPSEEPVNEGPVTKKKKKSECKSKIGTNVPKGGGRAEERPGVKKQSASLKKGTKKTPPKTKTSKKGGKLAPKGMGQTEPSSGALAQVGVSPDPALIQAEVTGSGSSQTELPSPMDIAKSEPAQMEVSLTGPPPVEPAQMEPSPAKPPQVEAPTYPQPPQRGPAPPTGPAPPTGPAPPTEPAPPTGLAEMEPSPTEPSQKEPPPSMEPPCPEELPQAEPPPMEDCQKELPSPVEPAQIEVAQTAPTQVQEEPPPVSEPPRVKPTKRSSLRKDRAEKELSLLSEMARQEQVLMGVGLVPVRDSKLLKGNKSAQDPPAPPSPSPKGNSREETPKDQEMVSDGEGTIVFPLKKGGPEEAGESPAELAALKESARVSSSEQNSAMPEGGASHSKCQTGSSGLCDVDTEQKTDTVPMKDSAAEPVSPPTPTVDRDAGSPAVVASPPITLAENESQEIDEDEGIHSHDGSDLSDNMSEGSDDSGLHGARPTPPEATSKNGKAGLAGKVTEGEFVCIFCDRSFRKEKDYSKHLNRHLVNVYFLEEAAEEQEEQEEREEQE
Nature of the experiment: co-IP; streptavidin beads, nuclear extract of biotin-tagged REST ESCs or BirA control ESCs; Western blot.

For the substance Eed (from UniProt Q921E6 1-441), the binding entry is reported as “no binding”.
Turning to Suz12 (from UniProt Q80U70 1-741), the binding result is given as “binds”.
